In all, about 59,000 compounds went through this assay and about 6,500 (11%) were called active. Inconclusive results, whose numbers are uncertain, are shown with a selection of clear calls. Cut-off read from the data, not from the text of the source: active = max dye-equivalent concentration above about 10 nM; inconclusive = mostly about 1.1 nM to 9.6 nM; inactive = weaker than that.
Assay: qHTS Assay for Spectroscopic Profiling in A350 Spectral Region
Conditions: Compound autofluorescence, 340/450 nm, Alexa 350 dye-equivalents; hits give high values

| SMILES | max dye-equivalent concentration |
| --- | --- |
| O=C(OCC(=O)N(C1CCCCC1)C1CCCCC1)c1cnccn1 | inconclusive: 4.9 nM |
| O=C(c1cc2nc3c(c(C(F)(F)F)n2n1)CCc1ccccc1-3)N1CCN2CCCC2C1 (stereo unspecified) | inconclusive: 5.1 nM |
| CCOC(=O)c1cccc(NC(=O)CSc2nnc(C)n2Cc2ccccc2)c1 | inactive |
| c1ccc2c3c([nH]c2c1)[C@@H]1[C@H]2CC[C@H]([C@H]4CCCN[C@H]42)N1CC3 | active: 450 nM |
| O=C(CCS(=O)(=O)c1ccc(Br)cc1)N1CCN(c2ccccc2)CC1 | inconclusive: 3.8 nM |
| CN(CC(=O)Nc1ccc(F)c(F)c1F)c1cnccn1 | inconclusive: 2.1 nM |
| Cn1c(=O)c2[nH]c(NCC3CCCO3)nc2n(-c2ccccc2)c1=O (stereo unspecified) | active: 11 nM |
| O=C(CCc1ccc(S(=O)(=O)N2CCOCC2)cc1)NCCc1ccccn1 | inconclusive: 1.7 nM |
| Cc1cc(C)cc(Nc2ncc3c(n2)CCCC3=O)c1 | inconclusive: 1.1 nM |
| COCCCn1c(=N)c(C(=O)NCc2ccc3c(c2)OCO3)cc2c(=O)n3cccc(C)c3nc21 | active: 290 nM |
| CCc1nnc(NC(=O)c2cc3ccccc3oc2=O)s1 | inconclusive: 3.1 nM |
| CCCc1cc(=O)n2[nH]c(C)nc2n1 | inconclusive: 2.2 nM |
| CCOC(=O)c1ccc(NC(=O)c2ccc3c(c2)OCO3)cc1 | inactive |
| Cc1c(C(=O)O)c(O)cc2c1C(=O)c1c(O)c([C@@H]3O[C@H](CO)[C@@H](O)[C@H](O)[C@@H]3O)c(O)c(O)c1C2=O | inactive |
| O=c1c(O)c(-c2ccc(O)cc2)oc2ccc(O)cc12 | active: 56 nM |
| N=C1C=CC(=C(c2ccc(N)cc2)c2ccc(N)cc2)C=C1 | inactive |
| O=C1CC(c2ccccc2)CC2=C1CN(C1CCCCC1)CN2 (stereo unspecified) | inconclusive: 1.6 nM |
| COc1ccc(OC)c(C2C(C(C)=O)=C(O)C(=O)N2c2ccc(O)cc2)c1 (stereo unspecified) | inconclusive: 4.4 nM |
| OC1(c2ccc(Br)cc2)CCNCC1 | inconclusive: 4.5 nM |

| SMILES | max dye-equivalent concentration |
| --- | --- |
| Cc1nn(CC(=O)NCC2CCCO2)c(=O)c2ccccc12 (stereo unspecified) | inactive |
| CCc1ccc(CCC(=O)Nc2ccc(C)cc2C)o1 | inconclusive: 1.4 nM |
| CC(C)Oc1ccc(CNC2CCOC(C)(C)C2)cc1 (stereo unspecified) | inactive |
| CC(C)(C)OC(=O)N[C@@H](Cc1ccccc1)c1nnc(SCC(=O)O)o1 | inconclusive: 1.1 nM |
| COCCN(C(=O)CN1CCc2ccccc2C1)c1c(N)n(Cc2ccccc2)c(=O)[nH]c1=O | inconclusive: 3.1 nM |
| O=C(CCCC(=O)N(CC(=O)NC1CCCCC1)CC1CCCO1)Nc1ccccn1 (stereo unspecified) | inconclusive: 5.3 nM |
| Cn1cccc1C(=O)N1CCC2(CC1)CCN(c1ccccn1)CC2 | inactive |
| CN1CCN(C(=O)C2C3C=CC(C3)C2C(=O)O)CC1 (stereo unspecified) | inactive |
| CN(C)CCCNCCCCNC(=O)/C=N/O | inconclusive: 4.4 nM |
| CCCC(=O)Nc1nn(C)c2nc3c(C)cccc3cc12 | active: 18 nM |
| Cc1cn([C@@H]2C[C@H](N=[N+]=N)[C@H](CO)O2)c(=O)[nH]c1=O | inconclusive: 2.1 nM |
| CC(=O)c1cccc(NC(=O)c2nccnc2C(=O)O)c1 | inconclusive: 3.1 nM |
| CCC(C)[C@H](NC(=O)NCCCN1CCOCC1)C(=O)OC (stereo partly specified) | inconclusive: 1.5 nM |
| CCCOc1cccc(CN2CCCCC2c2cccnc2)c1 (stereo unspecified) | inconclusive: 1.9 nM |
| CC(C)COC(=O)C(C#N)c1nc2ccccc2nc1N1CCN(Cc2ccc3c(c2)OCO3)CC1 (stereo unspecified) | inconclusive: 1.2 nM |
| Cc1ccccc1CS(=O)(=O)Cc1ccc(C(=O)NCCCN2CCCC2=O)o1 | inconclusive: 2.2 nM |
| O=C(c1cccs1)N1CCN(S(=O)(=O)N2CCOCC2)CC1 | inactive |
| CC[C@@H]1CN2CCc3cc(OC)c(OC)cc3[C@H]2C[C@@H]1C[C@H]1NCCc2cc(OC)c(OC)cc21 | inconclusive: 1.6 nM |
| O=C(CCN1C(=O)COc2ccccc21)NCCC1=CCCCC1 | inconclusive: 1.5 nM |

| SMILES | max dye-equivalent concentration |
| --- | --- |
| CCCCSc1nnc([C@@H]2CCCN2C(=O)OC(C)(C)C)o1 | inconclusive: 1.3 nM |
| Nc1c(NCCCN2CCOCC2)c2ccccc2oc1=O | inconclusive: 1.4 nM |
| COc1ccc(-c2cc3nc4c(c(N5CCC6(CC5)OCCO6)n3n2)CCCC4)cc1 | active: 99 nM |
| Cc1ccnc(NC(=O)c2cc(S(=O)(=O)N3CCCCC3)ccc2Cl)c1 | active: 51 nM |
| CCc1ccc(C2C3=C(CC(C)(C)CC3=O)Nc3c2c(=O)[nH]c2nc(C)nn32)cc1 (stereo unspecified) | active: 320 nM |
| CN(C)c1ccc(-c2nnc(-c3ccc(S(=O)(=O)C(F)F)cc3)o2)cc1 | inactive |
| CN(C)c1ncc2nc(-c3ccc(Cl)cc3)c(=O)n(-c3ccccc3)c2n1 | inconclusive: 4.8 nM |
| COc1ccc(-c2nc3cnc(OCc4ccccc4)nc3n(CCC#N)c2=O)cc1 | active: 28 nM |
| CCN(C(=O)CSc1nc2cc(C(=O)OC)ccc2c(=O)n1Cc1ccco1)c1cccc(C)c1 | inconclusive: 3.2 nM |
| CCOc1ccccc1C(=O)Nc1ccc2nc(N3CCN(c4ncccn4)CC3)cc(C)c2c1 | active: 59 nM |
| Cc1c(O)c(CN2CCCC2)cc2c1oc(=O)c1ccccc12 | inconclusive: 1.5 nM |
| O=C(NCCc1ccccc1)c1ccccc1NS(=O)(=O)N1CCCC1 | inconclusive: 5.3 nM |
| N#C/C(=C\c1ccc(O)c(O)c1)C(=O)c1ccc(O)c(O)c1 | inconclusive: 4 nM |
| CCCNS(=O)(=O)c1ccc(CCC(=O)N2CCC(C)CC2)cc1 | inconclusive: 1.1 nM |
| O=C(c1cc2ccccc2oc1=O)N(Cc1ccco1)C1CCS(=O)(=O)C1 (stereo unspecified) | inactive |
| COc1ccc(N2CCN(c3nc(NCCc4ccc(OC)c(OC)c4)nc(OC)n3)CC2)cc1 | inactive |
| CCC(C)c1ccc(O)c(N)c1 (stereo unspecified) | inactive |
| Cc1ccc(-c2ccc(=O)n(CC(=O)NCCCN3CCCCC3)n2)cc1 | inactive |

Entries shown so far that have bromine, in the order listed:

| SMILES | max dye-equivalent concentration |
| --- | --- |
| O=C(CCS(=O)(=O)c1ccc(Br)cc1)N1CCN(c2ccccc2)CC1 | inconclusive: 3.8 nM |
| OC1(c2ccc(Br)cc2)CCNCC1 | inconclusive: 4.5 nM |

Reference: PubChem BioAssay AID590 (National Center for Advancing Translational Sciences (NCATS), 2007)
